Measured values from PubChem BioAssay AID485353 (National Center for Advancing Translational Sciences (NCATS), 2010).
Out of some 330,000 compounds screened, about 610 (0.18%) were called active. Inconclusive means that the source gave no clear call. Such entries were picked first, then a sample of the others. Calls follow the shape of the full dose curve. Where the call is inconclusive, the potency comes from a doubtful curve fit.

Assay: qHTS of Yeast-based Assay for SARS-CoV PLP; also: nearly all actives have a fitted effect of over 55% in size
Conditions: S. cerevisiae expressing SARS-CoV PLpro; Potency: growth rescue; series mostly up to 32.9 µM
Potency is read from the fitted curve at half-maximal effect.

SMILES	Potency
O=S(=O)(c1ccccc1)N1N=C(c2ccc(Cl)cc2)CC1c1ccco1 (stereo not drawn)	inactive
CCOC(=O)Cn1c(=O)oc2ccc(C)cc21	inactive
COc1ccc(C(CC(=O)O)NS(=O)(=O)c2ccc(C)cc2)cc1OC (stereo not drawn)	inactive
CC(C)(C)C1CCc2sc(C(=O)NNC(=O)CCl)cc2C1 (stereo not drawn)	inconclusive: 3.16 µM [activator, single point]
O=c1c(C(c2ccc(O)cc2)c2c(O)nc3n(c2=O)CCS3)c(O)nc2n1CCS2	inactive
O=C(c1cc(-c2ccc(Cl)cc2)nc2ccccc12)N1CCOCC1	inactive
CCn1cc(S(=O)(=O)Nc2cc(C)ccc2F)cn1	inactive
N=c1c(C(=O)NCc2ccc(F)cc2)cc2c(=O)n3ccccc3nc2n1CCCN1CCOCC1	inconclusive: 4.47 µM [activator, single point]
Cc1cc(C(=O)N/N=C\c2cc(C(C)(C)C)ccc2O)n[nH]1	inconclusive: 20 µM [activator, single point]
Cc1c(NC2(C#N)CCCCC2)c(=O)n(-c2ccccc2)n1C	inactive
Cc1[nH]n(-c2cccc3ccccc23)c(=O)c1/C=N/NC(=O)c1cccc([N+](=O)[O-])c1	inconclusive: 1.26 µM [activator, full curve, poor fit]
CC(C)Cn1c(N)c(C(=O)CSc2ccccc2)c(=O)n(C)c1=O	inactive
O=C(Cn1c(=O)oc2cc(S(=O)(=O)N3CCCC3)ccc21)N1CCN(c2ccccn2)CC1	inactive
Cc1ccc([N+](=O)[O-])cc1N=Cc1ccc(Br)s1	inconclusive: 10 µM [activator, partial curve]
C/C(=N\NC(=S)NCc1ccccc1)c1cccs1	inactive
Cc1ccc(-n2c(C)cc(C=C3C(=O)CC(C)(C)CC3=O)c2C)cc1	inconclusive: 3.16 µM [activator, partial curve]
CC(=O)c1ccc(N(CC(=O)NC2CCCC2)C(=O)c2csnn2)cc1	inactive
NC(=O)c1ccc(NC(=O)COC(=O)/C=C/c2cn(-c3ccccc3)nc2-c2cccnc2)cc1	inconclusive: 20 µM [activator, single point]
CC(C)CNC(=S)NC(=O)c1ccccc1Cl	inconclusive: 20 µM [activator, single point]
Cc1c2cc(O)c(=O)cc-2oc2cc(O)c(O)cc12	inconclusive: 3.98 µM [activator, single point]
O=C(NCc1ccccc1Cl)C1CCCN1S(=O)(=O)c1ccc(F)cc1 (stereo not drawn)	inconclusive: 2.82 µM [activator, single point]
O=C1CCCCN1CCC(=O)N1CCCC(Nc2ccc(F)c(F)c2)C1 (stereo not drawn)	inconclusive: 2.51 µM [activator, full curve]
Cc1ccc(OC2=NS(=O)(=O)c3ccccc32)cc1	inconclusive: 4.47 µM [activator, single point]
COc1ccc(CCNC(=O)C2(c3ccccc3)CC2)cc1	inconclusive: 3.98 µM [activator, single point]
O=C(CCCCCNC(=O)c1ccccc1)N/N=C/c1ccc(O)cc1O	inconclusive: 3.55 µM [activator, full curve, poor fit]

Gathered by group: the entries above containing two or more sulfur atoms.
SMILES	Potency
O=c1c(C(c2ccc(O)cc2)c2c(O)nc3n(c2=O)CCS3)c(O)nc2n1CCS2	inactive
C/C(=N\NC(=S)NCc1ccccc1)c1cccs1	inactive

The list continues:

SMILES	Potency
O=C(NCCS(=O)(=O)NCCCc1ccccc1)c1ccccc1	inconclusive: 4.47 µM [activator, single point]
NNC(=S)NCc1ccc2c(c1)OCO2	inconclusive: 22.4 µM [activator, partial curve]
COc1ccccc1N(C(=O)CCl)c1cn(C(C)=O)c2ccccc12	inactive
N#Cc1cc(-c2ccc(Cl)cc2)cnc1Sc1ccccc1	inconclusive: 20 µM [activator, single point]
c1ccc(-n2cnc3cc(NCc4ccncc4)ccc32)cc1	inactive
Cc1ccc(C(=O)Cn2c(NCCO)nc3ccccc32)cc1	inconclusive: 10 µM [activator, single point]
Cc1ccc(-c2csc3ncn(CC(=O)O)c(=O)c23)cc1C	inconclusive: 20 µM [activator, partial curve, poor fit]
O=C(N/N=C/c1ccccc1Cl)c1ccc(F)cc1	inconclusive: 1.58 µM [activator, full curve]
CC(C)Cc1nc(SCC(=O)N2CCCC2)c2c(=O)n(C)c(=O)n(C)c2n1	inconclusive: 17.8 µM [activator, single point]
Cc1cc(OC(C)C(=O)Nc2cccnc2)ccc1Cl (stereo not drawn)	inconclusive: 2.24 µM [activator, single point]
COc1ccc(C2(C(=O)N3CCC(n4nc(-c5ccccc5)oc4=O)CC3)CC2)cc1	inconclusive: 0.355 µM [activator, full curve, poor fit]
CC(=O)c1ccccc1NC(=O)COC(=O)C1=NN(c2ccccc2)C(=O)CC1	inactive
O=C(NC(=S)NCC1CCCO1)c1cccs1 (stereo not drawn)	inconclusive: 11.2 µM [activator, single point]
COC(=O)c1ccc(NC(=S)NCCc2ccccc2)cc1	inconclusive: 20 µM [activator, single point]
CC(=O)N/C(=C/c1ccccc1)C(=O)NC(Cc1ccccc1)C(=O)O (stereo not drawn)	inconclusive: 17.8 µM [activator, single point]
Cc1ccc(C(c2nnnn2CC2CCCO2)N2CCN(c3cccc(C)c3C)CC2)cc1 (stereo not drawn)	inactive
Cc1cc(Oc2ccccc2)nc(SCC(=O)Nc2ccccc2)n1	inactive
COc1cc(NC(=S)NCc2ccc(S(N)(=O)=O)cc2)c(OC)cc1Cl	inconclusive: 3.98 µM [activator, single point]
CC(Oc1cc2oc(=O)c3c(c2cc1Cl)CCC3)C(=O)NC1CC(C)(C)NC(C)(C)C1 (stereo not drawn)	inconclusive: 2.82 µM [activator, single point]
COc1ccc(C(=O)Nc2ccc(S(=O)(=O)Nc3onc(C)c3C)cc2)c(OC)c1	inactive
Cc1ccc(NS(=O)(=O)c2c(C)[nH]c(C)c2C(=O)N2CCCC2)cc1Cl	inconclusive: 14.1 µM [activator, single point]
Cc1ccc(S(=O)(=O)N2CCCC(C(=O)Nc3ccc(NC(=O)c4ccccn4)cc3)C2)cc1 (stereo not drawn)	inconclusive: 4.47 µM [activator, single point]
CCOC(=O)C1CCN(C(=O)CN(c2cc(Cl)ccc2OC)S(=O)(=O)c2ccccc2)CC1	inconclusive: 3.55 µM [activator, single point]
O=C(COc1ccc(Cl)cc1)NCCCn1ccnc1	inconclusive: 3.55 µM [activator, single point]
COc1ccc(-c2cc(C(=O)N3CCCC3)c3ccccc3n2)cc1OC	inconclusive: 20 µM [activator, single point]

Filtered by structure, the compounds so far with a thiophene ring, fused or not.
SMILES	Potency
CC(C)(C)C1CCc2sc(C(=O)NNC(=O)CCl)cc2C1 (stereo not drawn)	inconclusive: 3.16 µM [activator, single point]
Cc1ccc([N+](=O)[O-])cc1N=Cc1ccc(Br)s1	inconclusive: 10 µM [activator, partial curve]
C/C(=N\NC(=S)NCc1ccccc1)c1cccs1	inactive
Cc1ccc(-c2csc3ncn(CC(=O)O)c(=O)c23)cc1C	inconclusive: 20 µM [activator, partial curve, poor fit]
O=C(NC(=S)NCC1CCCO1)c1cccs1 (stereo not drawn)	inconclusive: 11.2 µM [activator, single point]

(continued)

SMILES	Potency
CCOC(=O)C(NC(=O)N(C)C)(Nc1sc(C)c(CC)c1C#N)C(F)(F)F (stereo not drawn)	inconclusive: 15.8 µM [activator, single point]
CC(C)CNC(=S)NNC(=O)c1ccc2c(c1)OCO2	inconclusive: 14.1 µM [activator, single point]
CCc1c(C)c2c(C)[nH]nc2oc1=O	inconclusive: 3.55 µM [activator, single point]
O=C(CCNS(=O)(=O)c1ccccc1)N1CCOCC1	inconclusive: 3.55 µM [activator, single point]
CCOC(=O)N1C2C=C(C)[C@@H]2[C@@H]2CC(=O)N21 (stereo partly drawn)	inconclusive: 11.2 µM [activator, partial curve, poor fit]
CCOC(=O)C(C)Sc1nnc(-c2c[nH]c3ccccc23)n1C (stereo not drawn)	inactive
Cc1nnc(Oc2ccccc2F)c2ccccc12	inconclusive: 2.51 µM [activator, full curve]
CCCCCCNC(=O)Cc1c(O)c2ccccc2[nH]c1=O	inconclusive: 3.55 µM [activator, single point]
O=S(=O)(Cc1ccccc1)Nc1cccc(Br)c1	inactive
O=C1CC(N(CCc2ccccc2)C(=S)Nc2ccccc2)C(=O)N1c1ccccc1 (stereo not drawn)	inactive
CCn1c(=O)c(C(=O)Nc2ccccc2S(N)(=O)=O)c(O)c2ccccc21	inactive
CCOc1ccc(NC(=O)CC2S/C(=N/N=C3CCCCCC3)NC2=O)cc1 (stereo not drawn)	inconclusive: 20 µM [activator, single point]
CCOC(=O)COc1c(Cl)cc(C2NC(=S)NC(c3ccccc3)=C2C(C)=O)cc1OCC (stereo not drawn)	inconclusive: 20 µM [activator, single point]
CC(=O)c1ccccc1OCCOCCOc1ccccc1C(C)=O	inconclusive: 10 µM [activator, partial curve, poor fit]
O=C(N/N=C/c1c(Cl)cccc1Cl)c1cccc(F)c1	inconclusive: 17.8 µM [activator, single point]
O=C(CSc1nc(-c2ccco2)cc(C(F)(F)F)n1)Nc1ccccc1C(F)(F)F	inconclusive: 4.47 µM [activator, single point]
Cc1cccc(-c2n[nH]c(=S)n2Cc2ccccc2)c1	active: 8.91 µM
Cc1ccnc(NC(=O)c2ccc3c(c2)OCO3)c1	inactive
CCN=C1SC(CC(=O)NC2CCCCC2)C(=O)N1CC (stereo not drawn)	inconclusive: 10 µM [activator, partial curve]
O=C(NC1CCN(Cc2ccc(Cl)c(Cl)c2)CC1)c1ccccc1	inactive
CCCCCCCCC(=O)N/N=C(\C)c1ccc(O)cc1O	inconclusive: 15.8 µM [activator, partial curve]
CCN(CC)c1ccc(NC(=O)c2ccccc2OCC(=O)OC)cc1	inactive
O=C(/C=C/c1ccco1)Nc1nc(-c2ccccn2)cs1	inconclusive: 12.6 µM [activator, single point]
